These are yes or no findings as the source states them, for the method shown. In cells and extracts the contact can be indirect. These calls come from enrichment with a bait or labelling near it, and not all partners need be listed.
Molecular target: Erythropoietin-producing human hepatocellular B4 (EPHB4) (human (endogenous in SCC9)) (UniProt P54760)
Experiment: affinity purification with mass spectrometry; protein immunoprecipitated by anti-EPHB4 antibody from SCC9 cells, digested, proteomics screening by mass spectrometry; compared with the IgG control group

Sequences of proteins named here, by UniProt entry; tags and fusion partners are left off. Residues count along the entry.
UniProt P54760, residues 16-987: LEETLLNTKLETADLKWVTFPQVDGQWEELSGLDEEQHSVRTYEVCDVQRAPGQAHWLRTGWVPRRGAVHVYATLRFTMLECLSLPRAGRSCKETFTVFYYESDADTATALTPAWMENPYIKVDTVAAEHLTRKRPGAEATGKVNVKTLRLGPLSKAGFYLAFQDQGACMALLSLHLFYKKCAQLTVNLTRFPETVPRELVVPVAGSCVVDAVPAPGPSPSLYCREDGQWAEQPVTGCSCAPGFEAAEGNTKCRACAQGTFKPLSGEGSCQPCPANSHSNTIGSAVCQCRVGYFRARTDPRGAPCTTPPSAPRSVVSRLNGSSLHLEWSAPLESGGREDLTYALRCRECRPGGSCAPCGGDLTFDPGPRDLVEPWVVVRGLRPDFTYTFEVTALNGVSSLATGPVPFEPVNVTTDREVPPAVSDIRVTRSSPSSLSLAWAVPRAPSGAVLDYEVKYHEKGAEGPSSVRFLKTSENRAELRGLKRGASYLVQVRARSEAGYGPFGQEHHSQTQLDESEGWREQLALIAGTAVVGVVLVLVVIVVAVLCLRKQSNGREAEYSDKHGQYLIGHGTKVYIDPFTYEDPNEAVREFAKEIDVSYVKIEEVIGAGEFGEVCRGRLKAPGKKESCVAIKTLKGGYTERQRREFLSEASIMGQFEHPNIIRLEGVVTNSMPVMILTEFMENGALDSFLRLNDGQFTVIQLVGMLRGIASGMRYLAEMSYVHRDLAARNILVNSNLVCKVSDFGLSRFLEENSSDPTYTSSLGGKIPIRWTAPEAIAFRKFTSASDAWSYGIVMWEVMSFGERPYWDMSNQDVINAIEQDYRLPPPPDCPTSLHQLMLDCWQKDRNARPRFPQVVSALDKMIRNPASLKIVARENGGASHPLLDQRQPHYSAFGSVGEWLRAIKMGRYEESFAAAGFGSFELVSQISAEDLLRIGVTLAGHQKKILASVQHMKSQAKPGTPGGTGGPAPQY
UniProt Q08462: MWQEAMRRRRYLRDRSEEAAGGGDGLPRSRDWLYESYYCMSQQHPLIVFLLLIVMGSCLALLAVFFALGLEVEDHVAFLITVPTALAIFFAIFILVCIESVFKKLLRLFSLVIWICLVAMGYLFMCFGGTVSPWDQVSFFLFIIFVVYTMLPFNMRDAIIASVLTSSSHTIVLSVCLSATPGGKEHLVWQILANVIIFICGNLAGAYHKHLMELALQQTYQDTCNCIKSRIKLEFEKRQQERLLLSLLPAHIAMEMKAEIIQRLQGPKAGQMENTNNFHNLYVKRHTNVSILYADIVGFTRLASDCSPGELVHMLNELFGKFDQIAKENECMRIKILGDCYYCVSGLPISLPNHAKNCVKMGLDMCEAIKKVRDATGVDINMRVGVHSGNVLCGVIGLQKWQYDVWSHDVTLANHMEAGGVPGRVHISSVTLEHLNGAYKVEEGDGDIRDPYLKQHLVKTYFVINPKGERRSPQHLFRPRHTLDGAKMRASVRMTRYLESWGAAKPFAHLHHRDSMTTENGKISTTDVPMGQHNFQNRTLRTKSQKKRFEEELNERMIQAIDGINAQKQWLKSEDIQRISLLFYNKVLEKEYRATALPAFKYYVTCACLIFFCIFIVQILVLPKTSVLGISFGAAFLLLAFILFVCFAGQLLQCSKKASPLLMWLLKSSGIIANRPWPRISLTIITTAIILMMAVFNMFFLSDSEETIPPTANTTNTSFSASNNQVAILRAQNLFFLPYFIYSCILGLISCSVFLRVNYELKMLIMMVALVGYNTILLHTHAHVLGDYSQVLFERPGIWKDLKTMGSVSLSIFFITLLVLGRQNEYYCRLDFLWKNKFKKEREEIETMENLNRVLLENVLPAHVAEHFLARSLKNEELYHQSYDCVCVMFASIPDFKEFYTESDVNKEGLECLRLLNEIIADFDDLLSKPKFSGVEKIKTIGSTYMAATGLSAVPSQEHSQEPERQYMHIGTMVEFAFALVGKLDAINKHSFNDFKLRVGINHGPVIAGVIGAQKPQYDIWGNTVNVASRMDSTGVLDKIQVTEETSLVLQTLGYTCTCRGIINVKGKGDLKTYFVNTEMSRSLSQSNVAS
UniProt Q9UJU6: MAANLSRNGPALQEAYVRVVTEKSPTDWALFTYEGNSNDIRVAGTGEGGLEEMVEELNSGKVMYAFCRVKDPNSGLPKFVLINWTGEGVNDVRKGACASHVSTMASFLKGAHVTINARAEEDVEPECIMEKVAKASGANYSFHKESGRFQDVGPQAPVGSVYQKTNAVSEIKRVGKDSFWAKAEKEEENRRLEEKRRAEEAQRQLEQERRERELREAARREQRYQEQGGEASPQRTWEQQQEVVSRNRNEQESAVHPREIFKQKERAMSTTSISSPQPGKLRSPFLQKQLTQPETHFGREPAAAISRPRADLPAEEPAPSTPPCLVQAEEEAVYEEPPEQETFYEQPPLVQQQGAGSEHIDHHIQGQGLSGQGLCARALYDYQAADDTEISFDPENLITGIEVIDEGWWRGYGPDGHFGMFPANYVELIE
UniProt P63241: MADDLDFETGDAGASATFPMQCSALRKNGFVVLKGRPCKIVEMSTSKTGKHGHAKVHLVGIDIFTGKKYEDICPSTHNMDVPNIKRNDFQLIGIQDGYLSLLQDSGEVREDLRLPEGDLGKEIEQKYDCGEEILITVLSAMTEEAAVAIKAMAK
UniProt Q05BQ5: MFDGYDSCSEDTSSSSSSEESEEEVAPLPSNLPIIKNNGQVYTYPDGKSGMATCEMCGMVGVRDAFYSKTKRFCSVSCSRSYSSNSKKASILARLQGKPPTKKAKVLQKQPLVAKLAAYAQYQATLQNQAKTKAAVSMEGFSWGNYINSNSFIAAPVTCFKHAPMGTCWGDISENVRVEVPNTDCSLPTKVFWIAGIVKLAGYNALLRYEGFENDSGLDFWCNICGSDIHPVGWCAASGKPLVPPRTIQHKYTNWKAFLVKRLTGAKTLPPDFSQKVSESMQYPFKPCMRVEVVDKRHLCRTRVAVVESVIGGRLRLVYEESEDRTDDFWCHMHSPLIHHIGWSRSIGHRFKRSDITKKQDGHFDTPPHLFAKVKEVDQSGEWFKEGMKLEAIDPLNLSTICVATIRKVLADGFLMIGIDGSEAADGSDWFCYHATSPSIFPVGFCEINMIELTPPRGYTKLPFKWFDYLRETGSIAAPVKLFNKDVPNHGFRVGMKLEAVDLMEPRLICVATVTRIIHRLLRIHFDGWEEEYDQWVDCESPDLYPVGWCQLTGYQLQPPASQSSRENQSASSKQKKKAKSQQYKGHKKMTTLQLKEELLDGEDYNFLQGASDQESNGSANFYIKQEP
UniProt P09429: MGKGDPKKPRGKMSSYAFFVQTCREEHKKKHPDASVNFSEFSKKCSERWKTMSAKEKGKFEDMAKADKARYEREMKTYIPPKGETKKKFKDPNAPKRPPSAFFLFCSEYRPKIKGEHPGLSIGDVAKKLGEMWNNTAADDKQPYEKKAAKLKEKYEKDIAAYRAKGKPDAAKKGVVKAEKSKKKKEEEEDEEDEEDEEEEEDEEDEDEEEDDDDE
UniProt O43707: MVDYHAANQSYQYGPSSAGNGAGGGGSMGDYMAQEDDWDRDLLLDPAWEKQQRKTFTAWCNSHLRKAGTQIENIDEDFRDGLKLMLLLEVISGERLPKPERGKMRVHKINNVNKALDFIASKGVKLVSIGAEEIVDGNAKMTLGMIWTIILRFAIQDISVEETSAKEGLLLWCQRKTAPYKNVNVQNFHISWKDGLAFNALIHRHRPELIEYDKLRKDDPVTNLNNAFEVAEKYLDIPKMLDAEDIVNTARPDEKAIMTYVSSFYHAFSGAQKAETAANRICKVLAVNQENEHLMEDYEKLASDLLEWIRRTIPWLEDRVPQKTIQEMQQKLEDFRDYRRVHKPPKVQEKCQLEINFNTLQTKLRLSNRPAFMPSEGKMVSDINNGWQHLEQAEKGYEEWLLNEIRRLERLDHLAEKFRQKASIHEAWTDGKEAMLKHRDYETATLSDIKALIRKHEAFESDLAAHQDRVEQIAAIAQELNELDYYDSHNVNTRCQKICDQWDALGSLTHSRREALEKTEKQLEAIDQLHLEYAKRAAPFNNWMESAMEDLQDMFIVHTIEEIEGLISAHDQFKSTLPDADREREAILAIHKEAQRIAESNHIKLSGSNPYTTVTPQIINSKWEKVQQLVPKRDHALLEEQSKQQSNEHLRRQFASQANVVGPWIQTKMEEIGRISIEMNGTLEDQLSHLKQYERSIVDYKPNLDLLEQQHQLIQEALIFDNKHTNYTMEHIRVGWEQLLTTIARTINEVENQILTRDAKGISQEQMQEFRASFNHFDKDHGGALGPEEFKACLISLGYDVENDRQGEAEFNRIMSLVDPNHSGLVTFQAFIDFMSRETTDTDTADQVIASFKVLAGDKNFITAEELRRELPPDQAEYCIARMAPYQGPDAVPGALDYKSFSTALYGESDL
UniProt P27824, residues 21-592: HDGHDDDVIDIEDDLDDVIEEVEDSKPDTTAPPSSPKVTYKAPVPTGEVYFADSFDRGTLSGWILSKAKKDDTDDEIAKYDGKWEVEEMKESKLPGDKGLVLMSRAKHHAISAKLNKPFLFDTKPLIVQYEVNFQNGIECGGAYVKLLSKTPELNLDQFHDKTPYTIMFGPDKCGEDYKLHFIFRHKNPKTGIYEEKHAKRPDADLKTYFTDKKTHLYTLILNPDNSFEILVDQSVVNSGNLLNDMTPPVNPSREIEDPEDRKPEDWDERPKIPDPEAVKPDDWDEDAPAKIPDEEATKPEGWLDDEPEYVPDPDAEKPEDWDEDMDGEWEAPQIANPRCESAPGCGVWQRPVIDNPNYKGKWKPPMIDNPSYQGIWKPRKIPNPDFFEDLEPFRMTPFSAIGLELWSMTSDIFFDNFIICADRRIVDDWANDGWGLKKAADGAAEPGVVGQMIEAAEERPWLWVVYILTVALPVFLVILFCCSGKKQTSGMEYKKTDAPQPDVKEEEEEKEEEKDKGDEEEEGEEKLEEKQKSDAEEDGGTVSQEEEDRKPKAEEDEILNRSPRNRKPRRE
UniProt P02538: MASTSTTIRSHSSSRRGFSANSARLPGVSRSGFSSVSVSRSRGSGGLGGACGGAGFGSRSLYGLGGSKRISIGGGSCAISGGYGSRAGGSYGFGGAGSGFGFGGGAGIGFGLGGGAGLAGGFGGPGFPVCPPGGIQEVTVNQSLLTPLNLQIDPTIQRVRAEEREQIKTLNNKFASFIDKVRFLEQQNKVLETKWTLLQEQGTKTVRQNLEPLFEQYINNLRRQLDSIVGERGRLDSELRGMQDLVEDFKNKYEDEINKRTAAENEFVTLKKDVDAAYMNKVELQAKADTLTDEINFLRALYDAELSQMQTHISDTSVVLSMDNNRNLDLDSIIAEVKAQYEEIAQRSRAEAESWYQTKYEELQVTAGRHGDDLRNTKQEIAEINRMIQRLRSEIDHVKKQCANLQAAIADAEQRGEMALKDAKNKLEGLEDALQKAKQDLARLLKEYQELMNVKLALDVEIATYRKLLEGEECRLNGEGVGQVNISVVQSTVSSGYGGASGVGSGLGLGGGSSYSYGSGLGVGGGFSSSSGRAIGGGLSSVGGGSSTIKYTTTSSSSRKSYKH

| Molecule | binding |
| --- | --- |
| ADCY2 (from UniProt Q08462 1-1091) | binds |
| CALR (from UniProt P27797 18-417) | binds |
| DBNL (from UniProt Q9UJU6 1-430) | binds |
| EIF5A (from UniProt P63241 1-154) | binds |
| MBTD1 (from UniProt Q05BQ5 1-628) | binds |
| high-mobility group box 1 (HMGB1) (from UniProt P09429 1-215) | binds |
| TRAF4 (protein, UniProt Q9BUZ4 1-470) MPGFDYKFLEKPKRRLLCPLCGKPMREPVQVSTCGHRFCDTCLQEFLSEGVFKCPEDQLPLDYAKIYPDPELEVQVLGLPIRCIHSEEGCRWSGPLRHLQGHLNTCSFNVIPCPNRCPMKLSRRDLPAHLQHDCPKRRLKCEFCGCDFSGEAYESHEGMCPQESVYCENKCGARMMRRLLAQHATSECPKRTQPCTYCTKEFVFDTIQSHQYQCPRLPVACPNQCGVGTVAREDLPGHLKDSCNTALVLCPFKDSGCKHRCPKLAMARHVEESVKPHLAMMCALVSRQRQELQELRRELEELSVGSDGVLIWKIGSYGRRLQEAKAKPNLECFSPAFYTHKYGYKLQVSAFLNGNGSGEGTHLSLYIRVLPGAFDNLLEWPFARRVTFSLLDQSDPGLAKPQHVTETFHPDPNWKNFQKPGTWRGSLDESSLGFGYPKFISHQDIRKRNYVRDDAVFIRAAVELPRKILS | binds |
| ECH1 (protein, UniProt Q13011 34-328) TGSSAQEEASGVALGEAPDHSYESLRVTSAQKHVLHVQLNRPNKRNAMNKVFWREMVECFNKISRDADCRAVVISGAGKMFTAGIDLMDMASDILQPKGDDVARISWYLRDIITRYQETFNVIERCPKPVIAAVHGGCIGGGVDLVTACDIRYCAQDAFFQVKEVDVGLAADVGTLQRLPKVIGNQSLVNELAFTARKMMADEALGSGLVSRVFPDKEVMLDAALALAAEISSKSPVAVQSTKVNLLYSRDHSVAESLNYVASWNMSMLQTQDLVKSVQATTENKELKTVTFSKL | binds |

Second part, the molecule after the results:

| binding | Molecule |
| --- | --- |
| binds | ACTN4 (from UniProt O43707 1-911) |
| binds | CANX (from UniProt P27824 21-592) |
| binds | KRT6A (from UniProt P02538 1-564) |
| binds | SLC3A2 (from UniProt P08195 1-529) |
| binds | NR1H4 (protein, UniProt Q96RI1 1-486) MVMQFQGLENPIQISPHCSCTPSGFFMEMMSMKPAKGVLTEQVAGPLGQNLEVEPYSQYSNVQFPQVQPQISSSSYYSNLGFYPQQPEEWYSPGIYELRRMPAETLYQGETEVAEMPVTKKPRMGASAGRIKGDELCVVCGDRASGYHYNALTCEGCKGFFRRSITKNAVYKCKNGGNCVMDMYMRRKCQECRLRKCKEMGMLAECMYTGLLTEIQCKSKRLRKNVKQHADQTVNEDSEGRDLRQVTSTTKSCREKTELTPDQQTLLHFIMDSYNKQRMPQEITNKILKEEFSAEENFLILTEMATNHVQVLVEFTKKLPGFQTLDHEDQIALLKGSAVEAMFLRSAEIFNKKLPSGHSDLLEERIRNSGISDEYITPMFSFYKSIGELKMTQEEYALLTAIVILSPDRQYIKDREAVEKLQEPLLDVLQKLCKIHQPENPQHFACLLGRLTELRTFNHHHAEMLMSWRVNDHKFTPLLCEIWDVQ |
| binds | CRYAB (protein, UniProt P02511 1-175) MDIAIHHPWIRRPFFPFHSPSRLFDQFFGEHLLESDLFPTSTSLSPFYLRPPSFLRAPSWFDTGLSEMRLEKDRFSVNLDVKHFSPEELKVKVLGDVIEVHGKHEERQDEHGFISREFHRKYRIPADVDPLTITSSLSSDGVLTVNGPRKQVSGPERTIPITREEKPAVTAAPKK |

From paper PMC8425198
